Our source for the binding values is US20240102052A1 (VNV NEWCO, published 2024).

These are yes or no findings as the source states them, for the method shown. Some binding calls cover weakened binding; strength is not graded here. Sequences can lack the tags named with a protein.

In assay [1] the target is T1, untagged PNMA2 (human) (UniProt Q9UL42).
T1 sequence: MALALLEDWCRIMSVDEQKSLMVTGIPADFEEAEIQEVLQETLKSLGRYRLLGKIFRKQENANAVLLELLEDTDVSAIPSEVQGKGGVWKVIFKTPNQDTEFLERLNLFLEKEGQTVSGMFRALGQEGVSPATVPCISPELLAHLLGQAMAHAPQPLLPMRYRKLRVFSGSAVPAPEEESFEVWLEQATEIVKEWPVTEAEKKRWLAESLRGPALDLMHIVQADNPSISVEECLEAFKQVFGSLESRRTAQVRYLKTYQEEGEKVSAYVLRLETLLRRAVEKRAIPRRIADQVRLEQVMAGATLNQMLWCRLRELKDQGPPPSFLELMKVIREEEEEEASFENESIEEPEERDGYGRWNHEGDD
As to the kind of experiment: Ni-NTA affinity purification of hybrid capsids, SDS-PAGE.

Assay [2] concerns the target T1, untagged PNMA2 (human). The assay is described as follows: co-reassembly into hybrid capsids, confirmed by TEM.

Consider “PNMA2 with N-terminal 6xHis tag (from UniProt Q9UL42 2-364)”, for which the binding result in assay [1] and in assay [2] was “binds” in each case.
